Data as given in article PMC2861688.
Results are given in words; binding and its absence hold for the method and conditions named. In cells and extracts the contact can be indirect. Some entries that bind do so weakly or less than the wild type.

Sequences of proteins named here, by UniProt entry; tags and fusion partners are left off. A change or cut given only in a name is not applied to a line headed by its entry.
UniProt Q9Y297: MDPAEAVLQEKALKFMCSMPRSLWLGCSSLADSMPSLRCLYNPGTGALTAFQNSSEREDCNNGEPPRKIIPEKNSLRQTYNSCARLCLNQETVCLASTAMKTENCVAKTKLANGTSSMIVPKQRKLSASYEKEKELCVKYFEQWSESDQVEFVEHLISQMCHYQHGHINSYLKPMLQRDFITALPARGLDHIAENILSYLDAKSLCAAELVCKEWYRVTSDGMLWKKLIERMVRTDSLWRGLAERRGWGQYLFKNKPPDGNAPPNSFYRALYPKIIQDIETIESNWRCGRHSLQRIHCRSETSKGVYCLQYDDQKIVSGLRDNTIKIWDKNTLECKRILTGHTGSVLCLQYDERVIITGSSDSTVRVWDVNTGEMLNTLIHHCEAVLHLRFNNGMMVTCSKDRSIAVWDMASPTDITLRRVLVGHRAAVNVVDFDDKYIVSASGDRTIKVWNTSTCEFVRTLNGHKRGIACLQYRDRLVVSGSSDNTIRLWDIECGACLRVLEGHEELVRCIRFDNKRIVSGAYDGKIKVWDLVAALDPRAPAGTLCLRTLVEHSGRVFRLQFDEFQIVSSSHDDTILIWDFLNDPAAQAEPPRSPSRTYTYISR
UniProt P05923: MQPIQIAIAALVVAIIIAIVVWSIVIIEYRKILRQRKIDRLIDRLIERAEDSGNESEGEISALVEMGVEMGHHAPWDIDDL
UniProt P03522: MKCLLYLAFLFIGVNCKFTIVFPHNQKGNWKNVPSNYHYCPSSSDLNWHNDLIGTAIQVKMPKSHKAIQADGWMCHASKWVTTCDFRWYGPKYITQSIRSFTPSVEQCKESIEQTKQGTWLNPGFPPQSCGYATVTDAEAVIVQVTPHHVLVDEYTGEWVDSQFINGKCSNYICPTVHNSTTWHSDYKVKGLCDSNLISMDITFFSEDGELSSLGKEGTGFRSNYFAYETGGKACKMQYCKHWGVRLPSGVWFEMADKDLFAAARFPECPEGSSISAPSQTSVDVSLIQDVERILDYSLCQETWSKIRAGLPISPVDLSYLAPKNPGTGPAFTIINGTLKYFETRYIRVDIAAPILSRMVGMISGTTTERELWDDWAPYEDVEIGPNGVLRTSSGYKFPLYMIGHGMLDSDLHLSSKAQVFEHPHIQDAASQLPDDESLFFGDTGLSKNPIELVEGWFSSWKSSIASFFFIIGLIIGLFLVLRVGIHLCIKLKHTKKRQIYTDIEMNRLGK

Target: FLAG-tagged human β-TrCP1 (human) (UniProt Q9Y297)
Assay: co-IP

## Vpu-VSV-G-TMD (from UniProt P05923;P03522)
  binding: binds
